{
  "source": "paper PMC10484741",
  "about": "“Human TRMT2A methylates tRNA and contributes to translation fidelity”",
  "test_in_all_cases": "EMSA",
  "key": {"[1]": {"molecular_target": "hTRMT2A FL (WT) (Homo sapiens) (UniProt Q8IZ69)", "conditions": "poly(U) competitor, EMSA: 50 mM HEPES-NaOH pH 7.5, 150 mM NaCl, 4% glycerol, 2.5 ng/ul poly(U), 5 nM RNA, 0-1.25 uM protein (final, as stated), 20 min room temperature, recombinant protein, residues 1-625, protein details: N-terminal His-SUMO tag cleaved, label: 5'-32P"}, "[2]": {"molecular_target": "hTRMT2A Fusion domain del241-412 (Homo sapiens) (UniProt Q8IZ69)", "conditions": "micromolar KD range, poly(U) competitor; EMSA: 50 mM HEPES-NaOH pH 7.5, 150 mM NaCl, 4% glycerol, 2.5 ng/ul poly(U), 5 nM RNA, 0-1.25 uM protein (final, as stated), 20 min room temperature; recombinant protein; residues 69-590; protein details: N-terminal SUMO tag cleaved; label: 5'-32P"}, "[3]": {"molecular_target": "T1, hTRMT2A Central domain (Homo sapiens) (UniProt Q8IZ69)", "T1 sequence (looked up)": "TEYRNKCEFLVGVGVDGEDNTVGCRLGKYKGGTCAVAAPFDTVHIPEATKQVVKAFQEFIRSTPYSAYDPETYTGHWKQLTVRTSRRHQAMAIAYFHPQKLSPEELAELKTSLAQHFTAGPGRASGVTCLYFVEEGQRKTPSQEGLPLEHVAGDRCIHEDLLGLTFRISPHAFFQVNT", "conditions": "micromolar KD range, poly(U) competitor; EMSA: 50 mM HEPES-NaOH pH 7.5, 150 mM NaCl, 4% glycerol, 2.5 ng/ul poly(U), 5 nM RNA, 0-1.25 uM protein (final, as stated), 20 min room temperature; recombinant protein; residues 237-414; protein details: N-terminal His-SUMO tag retained; label: 5'-32P"}, "[4]": {"molecular_target": "hTRMT2A CBM (catalytic base mutant) E581A (Homo sapiens) (UniProt Q8IZ69)", "conditions": "slightly less than WT, still nM KD range, poly(U) competitor; EMSA: 50 mM HEPES-NaOH pH 7.5, 150 mM NaCl, 4% glycerol, 2.5 ng/ul poly(U), 5 nM RNA, 0-1.25 uM protein (final, as stated), 20 min room temperature; recombinant protein; residues 1-625; protein details: N-terminal His-SUMO tag cleaved; label: 5'-32P"}, "[5]": {"molecular_target": "hTRMT2A CNM (catalytic nucleophile mutant) C538A (Homo sapiens) (UniProt Q8IZ69)", "conditions": "slightly less than WT, still nM KD range, poly(U) competitor; EMSA: 50 mM HEPES-NaOH pH 7.5, 150 mM NaCl, 4% glycerol, 2.5 ng/ul poly(U), 5 nM RNA, 0-1.25 uM protein (final, as stated), 20 min room temperature; recombinant protein; residues 1-625; protein details: N-terminal His-SUMO tag cleaved; label: 5'-32P"}, "[6]": {"molecular_target": "hTRMT2A RBD (Homo sapiens) (UniProt Q8IZ69)", "conditions": "micromolar KD range, poly(U) competitor; EMSA: 50 mM HEPES-NaOH pH 7.5, 150 mM NaCl, 4% glycerol, 2.5 ng/ul poly(U), 5 nM RNA, 0-1.25 uM protein (final, as stated), 20 min room temperature; recombinant protein; residues 69-147; protein details: N-terminal SUMO tag cleaved; label: 5'-32P"}},
  "note": "The comparison behind a weaker result is the experiment's own reference, which may not be listed here. For some of these results: Where a protein sequence is shown, tags need not be part of it.",
  "data": [
    {"sequence": "CCGAGUUCAAAUCUCGG [tRNAGln T-loop (49-65)]", "values": [
      {"measurement": "binding result", "setting": "[1]; weaker shift, most RNA free", "result": "binds more weakly"}
    ]},
    {"sequence": "GGUCCCAUGGUGUAAUGGUUAGCACUCUGGACUUUGAAUCCAGCGAUCCGAGUUCAAAUCUCGGUGGGACCUCCA [tRNAGln-TTG]", "values": [
      {"measurement": "binding result", "setting": "[2]", "result": "binds more weakly"},
      {"measurement": "binding result", "setting": "[3]", "result": "binds more weakly"},
      {"measurement": "binding result", "setting": "[4]", "result": "binds more weakly"},
      {"measurement": "binding result", "setting": "[5]", "result": "binds more weakly"},
      {"measurement": "binding result", "setting": "[6]", "result": "binds more weakly"}
    ]},
    {"sequence": "GAUGGAUAAUAGAAUCUCUUUCAACUAAUAAGAGACAUUAUCACGAAACAAU [ASH1 E3 element mRNA]", "values": [
      {"measurement": "binding result", "setting": "[1]; (high) nanomolar KD range", "result": "binds more weakly"}
    ]}
  ]
}
